These are yes or no findings as the source states them, for the method shown. Binding seen in cells or lysates may run through a third protein. Some binding calls cover weakened binding; strength is not graded here.
Experiments:
human DAP12 (human) [1] = target: human DAP12 (human) (UniProt O43914); assay: co-immunoprecipitation from hMDL-1/DAP12 transfected 293 cells (FIG. 5B legend)
human DAP12 (human) [2] = target: human DAP12 (human) (UniProt O43914); assay: co-immunoprecipitation: lysates of hMDL-1/hDAP12 expressing cells precipitated with rabbit α-hMDL-1 antibodies, immunoblot with anti-hDAP12 antibodies

By UniProt entry, the sequences of proteins in these tests, tags left out. Residues count along the entry.
UniProt O43914, residues 22-113: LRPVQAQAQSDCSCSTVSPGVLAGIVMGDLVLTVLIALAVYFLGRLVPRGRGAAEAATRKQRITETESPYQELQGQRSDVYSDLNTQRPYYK

B1: human MDL-1 (myeloid DAP12-associating lectin) (receptor)
chain: MNWHMIISGLIVVVLKVVGMTLFLLYFPQIFNKSNDGFTTTRSYGTVSQIFGSSSPSPNGFITTRSYGTVCPKDWEFYQARCFFLSTSESSWNESRDFCKGKGSTLAIVNTPEKLKFLQDITDAEKYFIGLIYHREEKRWRWINNSVFNGNVTNQNQNFNCATIGLTKTFDAASCDISYRRICEKNAK
binding (human DAP12 (human) [1]): binds | binding (human DAP12 (human) [2]): binds
